Test results taken from patent US20130023532A1, “INDAZOLYL-PYRIMIDINES AS KINASE INHIBITORS” (priority 2010, published 2013).
Some entries share one result that the patent states for a list of compounds.

Chains of the proteins cited; added tags and fusions are not shown.
UniProt O43353, whole entry: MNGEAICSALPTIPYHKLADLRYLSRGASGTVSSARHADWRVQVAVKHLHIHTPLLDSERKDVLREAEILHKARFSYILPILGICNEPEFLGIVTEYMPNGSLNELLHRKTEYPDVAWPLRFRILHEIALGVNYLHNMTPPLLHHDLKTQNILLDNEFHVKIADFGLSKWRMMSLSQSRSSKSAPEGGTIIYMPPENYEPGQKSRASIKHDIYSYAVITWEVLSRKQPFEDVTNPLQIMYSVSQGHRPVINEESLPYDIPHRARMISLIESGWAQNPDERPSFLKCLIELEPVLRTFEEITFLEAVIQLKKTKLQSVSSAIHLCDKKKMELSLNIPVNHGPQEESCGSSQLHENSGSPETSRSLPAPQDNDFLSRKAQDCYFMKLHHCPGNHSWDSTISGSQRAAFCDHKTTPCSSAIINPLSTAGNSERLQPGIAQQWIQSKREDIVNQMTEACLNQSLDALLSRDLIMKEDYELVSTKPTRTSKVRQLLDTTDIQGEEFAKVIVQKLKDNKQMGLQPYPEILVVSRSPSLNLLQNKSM

Target: T1, RIPK2 (Homo sapiens, UniProt O43353)
T1 construct: Full length FLAG His tagged RIPK2 was purified from a Baculovirus expression system; FLAG (N); 6His (N); made in house; host or cells: Spodoptera frugiperda (Sf9) insect cells, baculovirus
Assay: Fluorescent polarization based binding assay at the ATP binding pocket of RIPK2
Settings: FP competition with fluorescently labeled ATP competitive ligand (5 nM); full length FLAG His tagged RIPK2; mean of a minimum of 2 experiments

| Compound | mean pIC50 |
| --- | --- |
| CN(c1ccnc(Nc2cccc(S(N)(=O)=O)c2)n1)c1n[nH]c2ncc(F)cc12 [Example 204, 3-({4-[(5-fluoro-1H-pyrazolo[3,4-b]pyridin-3-yl)(methyl)amino]-2-pyrimidinyl}amino)benzene sulfonamide] | greater than or equal to 6.0 |
| NS(=O)(=O)c1cc(Nc2nccc(Nc3n[nH]c4ncc(F)cc34)n2)ccc1Cl [Example 205, 2-chloro-5-({4-[(5-fluoro-1H-pyrazolo[3,4-b]pyridin-3-yl)amino]-2-pyrimidinyl]amino) benzene sulfonamide] | greater than or equal to 6.0 |
| CN(c1ccnc(Nc2ccc(Cl)c(S(N)(=O)=O)c2)n1)c1n[nH]c2ncc(F)cc12 [Example 206, 2-chloro-5-({4-[(5-fluoro-1H-pyrazolo[3,4-b]pyridin-3-yl)(methyl)amino]-2-pyrimidinyl}amino)benzene sulfonamide] | greater than or equal to 6.0 |
| Cc1cc(Nc2nccc(N(C)c3n[nH]c4c3cc(F)c[n+]4[O-])n2)cc(S(C)(=O)=O)c1 [Example 208, N4-(5-fluoro-7-oxido-1H-pyrazolo[3,4-b]pyridin-3-yl)-N4-methyl-N2-[3-methyl-5-(methylsulfonyl)phenyl]-2,4-pyrimidinediamine] | greater than or equal to 6.0 |
| Cc1cc(Nc2nccc(N(C)c3n[nH]c4c3cc(F)c(C)[n+]4[O-])n2)cc(S(C)(=O)=O)c1 [Example 209, 5-fluoro-6-methyl-3-(methyl(2-((3-methyl-5-(methylsulfonyl)phenyl)amino)pyrimidin-4-yl)amino)-1H-pyrazolo[3,4-b] pyridine 7-oxide] | greater than or equal to 6.0 |
| Cc1cc(Nc2nccc(N(C)c3n[nH]c4nc(C)c(F)cc34)n2)cc(S(=O)(=O)C2CCOCC2)c1 [Example 210, N4-(5-fluoro-6-methyl-1H-pyrazolo[3,4-b]pyridin-3-yl)-N4-methyl-N2-(3-methyl-5-((tetrahydro-2H-pyran-4-yl)sulfonyl)phenyl) pyrimidine-2,4-diamine] | greater than or equal to 6.0 |
